For two substances, binding results are on record in article PMC4764565.

Chains of the proteins cited; added tags and fusions are not shown. Residues count along the entry.
UniProt P54763, residues 19-986: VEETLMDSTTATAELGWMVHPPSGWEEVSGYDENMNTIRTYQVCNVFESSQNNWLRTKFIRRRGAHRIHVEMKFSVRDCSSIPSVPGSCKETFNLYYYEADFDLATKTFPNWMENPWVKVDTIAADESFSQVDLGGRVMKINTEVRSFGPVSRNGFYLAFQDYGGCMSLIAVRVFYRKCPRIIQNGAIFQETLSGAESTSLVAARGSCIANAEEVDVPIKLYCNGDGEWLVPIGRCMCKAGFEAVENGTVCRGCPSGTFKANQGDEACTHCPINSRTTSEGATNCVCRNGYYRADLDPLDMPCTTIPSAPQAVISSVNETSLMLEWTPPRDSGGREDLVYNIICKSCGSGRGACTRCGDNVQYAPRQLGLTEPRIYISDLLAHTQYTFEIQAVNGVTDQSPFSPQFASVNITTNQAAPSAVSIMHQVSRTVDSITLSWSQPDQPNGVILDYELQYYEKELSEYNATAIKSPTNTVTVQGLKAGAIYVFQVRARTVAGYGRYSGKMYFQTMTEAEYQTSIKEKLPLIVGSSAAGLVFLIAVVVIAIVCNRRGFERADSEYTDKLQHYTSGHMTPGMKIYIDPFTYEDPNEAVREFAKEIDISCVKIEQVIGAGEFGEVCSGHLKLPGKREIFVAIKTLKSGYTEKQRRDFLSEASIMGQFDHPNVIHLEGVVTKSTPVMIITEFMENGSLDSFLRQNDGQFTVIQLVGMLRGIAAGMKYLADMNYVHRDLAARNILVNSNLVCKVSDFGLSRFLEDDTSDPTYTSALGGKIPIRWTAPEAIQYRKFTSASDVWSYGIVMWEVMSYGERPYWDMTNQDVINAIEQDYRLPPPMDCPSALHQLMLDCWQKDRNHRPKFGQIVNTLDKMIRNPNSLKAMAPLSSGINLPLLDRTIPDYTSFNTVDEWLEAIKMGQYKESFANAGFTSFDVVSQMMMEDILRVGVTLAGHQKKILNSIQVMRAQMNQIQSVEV
UniProt O08747, residues 41-931: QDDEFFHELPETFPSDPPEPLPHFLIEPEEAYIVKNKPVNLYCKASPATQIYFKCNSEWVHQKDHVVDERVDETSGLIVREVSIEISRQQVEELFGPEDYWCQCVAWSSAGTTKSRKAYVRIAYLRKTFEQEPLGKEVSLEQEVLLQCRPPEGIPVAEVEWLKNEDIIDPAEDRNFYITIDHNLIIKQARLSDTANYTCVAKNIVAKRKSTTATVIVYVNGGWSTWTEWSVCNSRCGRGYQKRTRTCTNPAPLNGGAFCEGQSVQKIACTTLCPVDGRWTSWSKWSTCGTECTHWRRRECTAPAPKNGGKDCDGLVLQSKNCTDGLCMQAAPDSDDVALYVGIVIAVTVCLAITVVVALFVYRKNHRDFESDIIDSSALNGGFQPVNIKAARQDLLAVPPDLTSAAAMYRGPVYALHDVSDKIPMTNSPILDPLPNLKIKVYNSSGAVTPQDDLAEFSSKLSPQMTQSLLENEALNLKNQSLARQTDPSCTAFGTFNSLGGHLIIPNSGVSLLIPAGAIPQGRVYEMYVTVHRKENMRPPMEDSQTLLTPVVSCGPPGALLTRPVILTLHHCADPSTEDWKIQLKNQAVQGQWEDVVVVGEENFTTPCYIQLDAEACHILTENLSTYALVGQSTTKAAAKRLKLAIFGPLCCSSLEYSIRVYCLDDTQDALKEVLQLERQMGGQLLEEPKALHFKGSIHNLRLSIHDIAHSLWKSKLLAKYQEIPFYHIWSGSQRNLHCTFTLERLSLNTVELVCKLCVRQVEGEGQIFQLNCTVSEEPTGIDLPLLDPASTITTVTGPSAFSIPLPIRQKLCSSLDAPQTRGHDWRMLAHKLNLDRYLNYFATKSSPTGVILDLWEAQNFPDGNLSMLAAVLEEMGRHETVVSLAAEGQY

No constants are given. Whether binding was seen depends on the method and setting. Binding seen in cells or lysates may run through a third protein. Some results given as binding are weak or reduced against the parent protein; the word gives no strength. For part of these data: Where a sequence is shown, tags or fusion partners need not be part of it.

One assay concerns the target EphB2-GFP (mouse) (UniProt P54763). The assay is described as follows: co-IP; anti-GFP antibody on ProteinA/G agarose, overnight, pre-cleared lysates of co-transfected HEK293 cells (10mM Tris-Cl pH 8, 137 mM NaCl, 2mM EDTA, 1% NP40); blot for Myc; in the ligand experiments cells were starved 2 hr in OPTIMEM and incubated 15 min at 37°C with pre-clustered Fc, eB2-Fc or eA3-Fc (1.5 μg/ml), Netrin-1 (250 ng/ml) or eB2-Fc+Netrin-1 before lysis.

For another assay, the target named is T1, EphA3-GFP (UniProt P29320).
T1 sequence: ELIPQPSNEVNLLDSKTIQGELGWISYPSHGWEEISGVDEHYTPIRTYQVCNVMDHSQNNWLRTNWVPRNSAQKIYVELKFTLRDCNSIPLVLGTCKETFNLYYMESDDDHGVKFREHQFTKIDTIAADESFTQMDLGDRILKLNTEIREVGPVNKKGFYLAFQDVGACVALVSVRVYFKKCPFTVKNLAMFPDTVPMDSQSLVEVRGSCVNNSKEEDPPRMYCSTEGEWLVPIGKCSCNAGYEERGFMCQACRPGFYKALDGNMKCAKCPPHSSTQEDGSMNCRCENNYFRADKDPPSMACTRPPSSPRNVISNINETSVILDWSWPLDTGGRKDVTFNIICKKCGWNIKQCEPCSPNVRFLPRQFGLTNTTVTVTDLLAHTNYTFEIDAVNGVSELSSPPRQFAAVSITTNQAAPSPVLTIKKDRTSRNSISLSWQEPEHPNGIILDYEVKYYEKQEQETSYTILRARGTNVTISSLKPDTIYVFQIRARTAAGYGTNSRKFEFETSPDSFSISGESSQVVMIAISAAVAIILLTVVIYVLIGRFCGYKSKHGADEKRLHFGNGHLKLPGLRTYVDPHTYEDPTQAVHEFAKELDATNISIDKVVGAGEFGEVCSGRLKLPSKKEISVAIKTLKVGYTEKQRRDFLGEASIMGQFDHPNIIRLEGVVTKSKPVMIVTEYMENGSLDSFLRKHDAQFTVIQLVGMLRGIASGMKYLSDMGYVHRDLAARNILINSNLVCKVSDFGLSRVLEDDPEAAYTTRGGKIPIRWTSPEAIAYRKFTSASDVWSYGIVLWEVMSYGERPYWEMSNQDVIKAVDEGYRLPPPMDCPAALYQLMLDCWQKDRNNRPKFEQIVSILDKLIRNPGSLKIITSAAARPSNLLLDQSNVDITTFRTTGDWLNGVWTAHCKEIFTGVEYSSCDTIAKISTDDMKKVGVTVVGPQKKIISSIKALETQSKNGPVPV
Described as above.

The target of a further assay is Unc5c-Myc (mouse) (UniProt O08747). The assay is described as follows: co-IP; reciprocal: Myc antibody on ProteinA/G agarose, lysates of Unc5c-Myc- and Ephb2-GFP-transfected HEK293 cells; EphB2-GFP detected.

Turning to “Unc5c-Myc (from UniProt O08747 41-931) (receptor)”, the figures for the binding entry with EphB2-GFP (mouse) and with EphA3-GFP were “binds” and “no binding”, respectively.

On to “EphB2-GFP (from UniProt P54763 19-986) (receptor)”, for which the binding result in the assay with Unc5c-Myc (mouse) is given as “binds”.
